Experimental data published in patent US6949349.
These are yes or no findings as the source states them, for the method shown. Binding calls can cover weak binding; strength is not graded here.

What was measured:
[1] = target: T1, recombinant human IGFBP-1 (human, UniProt P08833 26-259); experiment: competitive displacement of 125I-IGF-I from plate-coated rhIGFBP-1
T1 sequence (looked up): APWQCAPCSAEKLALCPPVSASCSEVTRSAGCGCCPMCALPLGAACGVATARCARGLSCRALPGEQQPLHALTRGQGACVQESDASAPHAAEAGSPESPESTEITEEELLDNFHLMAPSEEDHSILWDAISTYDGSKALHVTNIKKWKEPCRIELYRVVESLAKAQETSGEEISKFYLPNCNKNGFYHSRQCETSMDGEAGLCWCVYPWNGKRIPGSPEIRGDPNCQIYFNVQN

[2] = target: T1, recombinant human IGFBP-1; experiment: competitive displacement of 125I-IGF-I from plate-coated IGFBP

With (Leu^24, Ala^31)hIGF-I (ligand) the binding [1] was “binds” and the binding [2] was “binds”.
